These are yes or no findings as the source states them, for the method shown. Binding seen in cells or lysates may run through a third protein. Here binding means that the protein was enriched with, or labelled near, the bait; the list need not be complete.
target: TEX264-SSH (UniProt Q9Y6I9); assay: affinity purification with mass spectrometry; Strep-Tactin Sepharose on Benzonase-digested chromatin of doxycycline-induced TEX264-SSH Flp-In TRex HEK293 cells; biotin elution; LC-MS/MS

Amino acid sequences for entries named in this document (tags omitted).
UniProt Q9Y6I9: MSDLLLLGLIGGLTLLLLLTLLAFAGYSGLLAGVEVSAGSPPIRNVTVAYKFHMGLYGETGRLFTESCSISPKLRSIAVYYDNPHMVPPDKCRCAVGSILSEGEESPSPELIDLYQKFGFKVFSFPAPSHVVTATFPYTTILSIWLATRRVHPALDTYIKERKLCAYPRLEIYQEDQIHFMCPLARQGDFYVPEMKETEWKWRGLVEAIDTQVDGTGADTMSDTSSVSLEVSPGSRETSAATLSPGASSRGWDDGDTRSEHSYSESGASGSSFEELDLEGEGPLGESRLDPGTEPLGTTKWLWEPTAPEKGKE
UniProt P11387: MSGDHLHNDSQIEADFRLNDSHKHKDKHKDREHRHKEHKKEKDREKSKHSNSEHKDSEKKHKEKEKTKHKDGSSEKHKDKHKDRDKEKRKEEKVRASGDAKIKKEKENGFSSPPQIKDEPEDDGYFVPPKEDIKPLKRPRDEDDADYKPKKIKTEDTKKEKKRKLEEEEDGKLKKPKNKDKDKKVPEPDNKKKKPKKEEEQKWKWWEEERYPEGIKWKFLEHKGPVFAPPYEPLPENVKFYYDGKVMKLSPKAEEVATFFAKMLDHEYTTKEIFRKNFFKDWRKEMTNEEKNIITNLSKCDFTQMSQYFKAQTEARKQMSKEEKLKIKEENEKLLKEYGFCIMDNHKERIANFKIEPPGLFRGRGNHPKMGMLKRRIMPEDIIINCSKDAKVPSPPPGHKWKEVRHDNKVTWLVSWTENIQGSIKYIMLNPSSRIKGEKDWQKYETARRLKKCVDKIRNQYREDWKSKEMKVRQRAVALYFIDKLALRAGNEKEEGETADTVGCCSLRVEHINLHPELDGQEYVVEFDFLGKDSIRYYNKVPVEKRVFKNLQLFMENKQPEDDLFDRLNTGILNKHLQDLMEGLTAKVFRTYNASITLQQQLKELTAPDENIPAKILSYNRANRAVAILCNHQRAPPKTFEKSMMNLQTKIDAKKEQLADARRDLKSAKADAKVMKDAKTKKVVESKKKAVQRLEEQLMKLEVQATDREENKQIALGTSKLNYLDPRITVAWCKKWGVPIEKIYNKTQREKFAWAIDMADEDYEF
UniProt P12004: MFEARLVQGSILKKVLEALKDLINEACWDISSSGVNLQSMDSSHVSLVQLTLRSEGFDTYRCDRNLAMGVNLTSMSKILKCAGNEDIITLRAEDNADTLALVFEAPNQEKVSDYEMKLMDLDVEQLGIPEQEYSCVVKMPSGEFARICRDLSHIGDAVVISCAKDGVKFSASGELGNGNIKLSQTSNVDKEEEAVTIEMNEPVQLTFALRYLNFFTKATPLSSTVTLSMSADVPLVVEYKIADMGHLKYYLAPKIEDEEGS

binding, binds:
p97 ATPase (endogenous) (from UniProt P55072 1-806)
Topoisomerase 1 (endogenous TOP1) (from UniProt P11387 1-765)
PCNA (endogenous) (from UniProt P12004 1-261)
